# The campaign covered roughly 340,000 compounds. About 6,200 (1.8%) were called active. The shares of active, inactive and inconclusive entries below differ from those in the screen. Calls follow the shape of the dose curve; as a rule, active = well fitted activation curve with a large enough effect; inconclusive = small, poorly fitted or top-dose-only effect; inactive = no such curve, though single readings can be large or run the other way. Potencies of inconclusive entries are doubtful fits and often do not repeat.
# Assay: A quantitative high throughput screen for small molecules that induce DNA re-replication in SW480 colon adenocarcinoma cells. Also: nearly all actives have a fitted effect of over 55% in size. As to re-replication activation: % of control where 0% means no effect.
# Conditions: Hoechst DNA content imaging, 48 h; re-replication activation: at 46.1 µM (top of the series) unless noted
# Outline: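 Readout is total intensity of Hoechst-stained nuclei, excited at 405 nm and collected at 500-530 nm. Compound treatment lasted 48 hr at 37 C in 5% CO2 before staining.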
# Potency is read from the fitted curve at half-maximal effect.
Structure (SMILES),Potency,re-replication activation
O=C(Nc1ccccc1)Nc1ncc([N+](=O)[O-])s1,"inconclusive: 20.6 µM [activator, single point]",–
CC(C)CNC(=S)NC1CC2CCC(C1)N2Cc1ccccc1 (stereo not given),"inconclusive: 16.4 µM [activator, single point]",–
CC(C)(C)C(=O)/C=c1\s/c(=C\c2ccc(-c3ccc([N+](=O)[O-])cc3)o2)c(=O)n1CC(=O)NC(N)=O,"inconclusive: 7.31 µM [activator, partial curve]",–
CCOCCn1ccc2c(OCC(=O)Nc3ccccc3OC)cccc2c1=O,–,inactive: -468%
COc1ccccc1CN(C)CC(=O)NC1CCCc2ccccc21 (stereo not given),"inconclusive: 0.291 µM [activator, full curve, poor fit]",–
CN(C)C(CNC(=O)C1CCN(S(=O)(=O)c2cccc(Cl)c2Cl)CC1)c1ccccc1 (stereo not given),"inconclusive: 29.1 µM [activator, single point]",–
COC(=O)c1ccc(COc2ccccc2/C=C/C(=O)c2ccc(OCC(=O)O)cc2)cc1,"inconclusive: 16.4 µM [activator, single point]",–
N#CC/C(N)=N/Nc1nc2ccccc2nc1Cc1ccccc1,"inconclusive: 29.1 µM [activator, single point]",–
CCO[C@H]1OC(C(=O)NC2CC2)=C[C@@H](c2c[nH]c3ccccc23)[C@@H]1CCCO,"inconclusive: 2.91 µM [activator, partial curve, poor fit]",–
C=CCn1c(=NC(=O)c2ccc(S(=O)(=O)N3CCc4ccccc4C3)cc2)sc2cc(S(N)(=O)=O)ccc21,"inconclusive: 29.1 µM [activator, single point]",–
O=C(CN1CCCCC1)Nc1c2c(nc3ccccc13)N(c1ccccc1)CC2,"inconclusive: 16.4 µM [activator, single point]",–
CC1CCCC(NC(=O)NC(=O)CCl)C1C (stereo not given),"inconclusive: 23.1 µM [activator, partial curve, poor fit]",–
Cc1ccc(NC(=O)c2cnc(SCC(=O)NCC3CCCO3)n(C)c2=O)cc1 (stereo not given),"inconclusive: 29.1 µM [activator, single point]",–
CCCC1=Nc2cc(C(=O)N3CCCC3)ccc2Sc2ccc(C)cc21,"inconclusive: 23.1 µM [activator, single point]",–
CCOC(=O)c1[nH]c2ccc(Br)cc2c1NC(=O)CCN1CCC(C(=O)OCC)CC1,"inconclusive: 1.3 µM [activator, full curve]",–
Cc1ccc(-c2cccc(C(=O)NCCc3ccccc3)n2)c2ccccc12,"inconclusive: 25.9 µM [activator, partial curve, poor fit]",–
CC(C)CN1CC(COCc2ccccc2)Oc2ccccc2S1(=O)=O (stereo not given),–,inactive: 7.76%
CC1CCN(S(=O)(=O)c2ccc3c(c2)CCN3C(=O)C2CCC2)CC1,"inconclusive: 2.59 µM [activator, partial curve, poor fit]",–
COc1ccc(C2CC(=O)Oc3c(C(C)C)ccc(C)c32)cc1 (stereo not given),"inconclusive: 29.1 µM [activator, single point]",–
Cc1cc(NC(=O)c2cc(-c3ccco3)on2)n(-c2ccccc2)n1,–,inactive: -10.4%
Cc1ccc(NC(=O)Cc2ccc(Cl)c(Cl)c2)cc1S(=O)(=O)N(C)C,"inconclusive: 29.1 µM [activator, single point]",–
COc1ccc(CNC[C@H]2O[C@@H](n3cnc4c(N)ncnc43)[C@H](O)[C@@H]2O)cc1OC,"inconclusive: 0.651 µM [activator, single point]",–

Structure (SMILES),Potency,re-replication activation
CC(C)(C)c1ccc(OCCC(=O)Nc2ccc(N3CCOCC3)cc2N2CCOCC2)cc1,"inconclusive: 6.51 µM [activator, partial curve, poor fit]",–
Cn1cccc2[nH]c(=O)nc1-2,"inconclusive: 18.4 µM [activator, single point]",–
COC(=O)CSc1ncnc2scc(-c3ccccc3)c12,"inconclusive: 6.51 µM [activator, partial curve, poor fit]",–
O=C(COc1cccc2c1CCN(Cc1ccccc1)C2=O)N1CCCCC1,"inconclusive: 18.4 µM [activator, partial curve, poor fit]",–
O=C(NCc1ccc(Cl)cc1)c1cccc(NC(=O)c2ccccc2)c1,–,inactive: -4.45%
O=C(/C=C/Nc1ccc(Oc2ccccc2)cc1)c1ccco1,"inconclusive: 16.4 µM [activator, partial curve, poor fit]",–
CCN(CC)S(=O)(=O)c1ccc(N2CCCC2)c(NS(=O)(=O)c2ccc(OC)cc2)c1,"inconclusive: 6.51 µM [activator, single point]",–
CN(C(=O)c1cccc(NC(=O)Cc2ccc(NC(=O)C3CCCN(C(=O)C4CCCCC4)C3)cc2)c1)C1CCCC1 (stereo not given),"inconclusive: 0.103 µM [activator, partial curve, poor fit]",–
Cc1c(Cl)c([N+](=O)[O-])nn1CCCC(=O)Nc1cc(Cl)ccc1Cl,"inconclusive: 18.4 µM [activator, single point]",–
O=C(CCSc1ccc(Br)cc1)c1ccc(O)cc1,–,inactive: 0.719%
COc1ccc(C(=O)N2CCC(C(=O)c3c(C)cc(C)cc3C)CC2)cc1,"inconclusive: 6.51 µM [activator, single point]",–
O=c1c2sc(-c3ccccc3)cc2nc2n1CCC2,–,inactive: -5.93%
O=[N+]([O-])c1ccc(N2CCN(Cc3ccncc3)CC2)cc1,–,inactive: 0.588%
CCOCCCNC(=O)c1cc2c(=O)n(CC)c3ccccc3c2s1,"inconclusive: 23.1 µM [activator, single point]",–
COc1cccc2cc(C(C)N(CCCN3CCOCC3)C(=S)Nc3ccccc3C)oc12 (stereo not given),–,inactive: -8.99%
COc1ccc(CC2S/C(=N/N=C/c3ccccc3O)NC2=O)cc1 (stereo not given),active: 2.91 µM,–
CCOc1ccc(NC(=O)CN2CCN(CC(=O)Nc3ccc(Cl)c(C(F)(F)F)c3)CC2)cc1,"inconclusive: 20.6 µM [activator, partial curve, poor fit]",–
Cc1ccc(NC(=S)N2CCCCCC2)c(C)c1,–,inactive: 0.202%
CC(=O)Nc1cccc(Nc2nc(-c3ccccc3F)nc3ccccc23)c1,–,inactive: -4.09%
O=C(NCc1cc([N+](=O)[O-])ccc1O)c1cccnc1Sc1ccccc1Cl,–,inactive: -5.74%
O=C(NCCCN1CCCCC1)c1ccc(CS(=O)c2ccc(Cl)cc2)o1 (stereo not given),"inconclusive: 16.4 µM [activator, partial curve, poor fit]",–
Cc1cccn2c(=O)c(/C=C(\C#N)C(N)=O)c(Oc3ccccc3)nc12,"inconclusive: 2.91 µM [activator, single point]",–

Structure (SMILES),Potency,re-replication activation
CCCCCCCOc1ccc(C(=O)Nc2cccnc2)cc1,"inconclusive: 32.6 µM [activator, partial curve, poor fit]",–
Cc1ccc(S(=O)(=O)N2CCC(=O)N(C(COCc3ccccc3)C(C)C)CC2)cc1 (stereo not given),"inconclusive: 23.1 µM [activator, single point]",–
CS(=O)(=O)c1ccc(Cl)c(NC(=O)COC(=O)/C=C/c2cnc3ccccc3n2)c1,"inconclusive: 29.1 µM [activator, single point]",–
O=C1C(CCC(O)c2ccc(F)cc2)C(c2ccc(O)cc2)N1c1ccc(F)cc1 (stereo not given),–,inactive: -6.14%
CC1Sc2ccc(S(=O)(=O)N3CCN(c4ccccc4)CC3)cc2NC1=O (stereo not given),–,inactive: -6.23%
C[C@@H]1COC(=O)CCC/C=C\C[C@@H](CC(=O)N(CCO)Cc2ccccc2)C(=O)N1,–,inactive: -35.9%
COC(=O)c1c(N2C(=O)CC(Sc3ccccc3C(=O)O)C2=O)sc(C)c1C (stereo not given),"inconclusive: 29.1 µM [activator, single point]",–
Cc1cccc(NC(=O)c2ccccc2NC(=O)c2ccccc2)n1,"inconclusive: 6.51 µM [activator, single point]",–
O=C(O)/C=C/C(=O)NNc1ncnc2ccccc12,"inconclusive: 29.1 µM [activator, single point]",–
Cc1ccc(S(=O)(=O)N2CCN(C(=O)COC(=O)/C=C/c3ccccc3[N+](=O)[O-])CC2)c(C)c1,"inconclusive: 0.13 µM [activator, full curve, poor fit]",–
COc1ccc(-c2c(C)[nH]n3c(=O)c(Cc4ccccc4)c(C)nc23)cc1,"inconclusive: 14.6 µM [activator, single point]",–
CCCCC1=CC2=C(c3ccco3)C(=O)C(C)(OC(=O)c3ccc(OC)cc3)C(=O)C2=CN1CC1CC1 (stereo not given),"inconclusive: 9.2 µM [activator, single point]",–
CC1CCN(c2c(NCC3CCC(C(=O)NCCc4ccc(Cl)cc4)CC3)c(=O)c2=O)CC1 (stereo not given),"inconclusive: 29.1 µM [activator, single point]",–
Fc1ccccc1/C=N/Nc1nc2ccccc2o1,–,inactive: -0.1%
O=c1c(Cl)cc(Cl)nn1-c1ccccc1,"inconclusive: 6.51 µM [activator, full curve]",–
Cn1cc(C2CC(c3ccccc3)=NN2C(=O)c2ccccc2)c2ccccc21 (stereo not given),"inconclusive: 29.1 µM [activator, single point]",–
Cc1ccc(C)c(N2CC(=O)N(c3cc(C)ccc3C)CC2=O)c1,–,inactive: 2.64%
Cc1ccc(SCc2cn3c(C)csc3n2)cc1,–,inactive: 9.44%
O=C1[C@@H]2C(c3cccnc3)=NO[C@@H]2C(=O)N1c1ccc2ccccc2c1,"inconclusive: 18.4 µM [activator, single point]",–
Cc1ccc(N(C)S(=O)(=O)c2ccc3[nH]cc(C(=O)NCCCN4CCOCC4)c(=O)c3c2)cc1C,"inconclusive: 7.31 µM [activator, partial curve]",–
CC(=O)Nc1ccc(Sc2ccc([N+](=O)[O-])o2)cc1,active: 5.8 µM,–

# A section taken from the entries so far, for reference:
Structure (SMILES),Potency,re-replication activation
Fc1ccccc1/C=N/Nc1nc2ccccc2o1,–,inactive: -0.1%
O=c1c(Cl)cc(Cl)nn1-c1ccccc1,"inconclusive: 6.51 µM [activator, full curve]",–
Cn1cc(C2CC(c3ccccc3)=NN2C(=O)c2ccccc2)c2ccccc21 (stereo not given),"inconclusive: 29.1 µM [activator, single point]",–
Cc1ccc(C)c(N2CC(=O)N(c3cc(C)ccc3C)CC2=O)c1,–,inactive: 2.64%
